Source: paper PMC10549964
These are yes or no findings as the source states them, for the method shown. Binding seen in cells or lysates may run through a third protein. Some results given as binding are weak or reduced against the parent protein; the word gives no strength.

Sequences of proteins named here, by UniProt entry; tags and fusion partners are left off.
UniProt Q13490: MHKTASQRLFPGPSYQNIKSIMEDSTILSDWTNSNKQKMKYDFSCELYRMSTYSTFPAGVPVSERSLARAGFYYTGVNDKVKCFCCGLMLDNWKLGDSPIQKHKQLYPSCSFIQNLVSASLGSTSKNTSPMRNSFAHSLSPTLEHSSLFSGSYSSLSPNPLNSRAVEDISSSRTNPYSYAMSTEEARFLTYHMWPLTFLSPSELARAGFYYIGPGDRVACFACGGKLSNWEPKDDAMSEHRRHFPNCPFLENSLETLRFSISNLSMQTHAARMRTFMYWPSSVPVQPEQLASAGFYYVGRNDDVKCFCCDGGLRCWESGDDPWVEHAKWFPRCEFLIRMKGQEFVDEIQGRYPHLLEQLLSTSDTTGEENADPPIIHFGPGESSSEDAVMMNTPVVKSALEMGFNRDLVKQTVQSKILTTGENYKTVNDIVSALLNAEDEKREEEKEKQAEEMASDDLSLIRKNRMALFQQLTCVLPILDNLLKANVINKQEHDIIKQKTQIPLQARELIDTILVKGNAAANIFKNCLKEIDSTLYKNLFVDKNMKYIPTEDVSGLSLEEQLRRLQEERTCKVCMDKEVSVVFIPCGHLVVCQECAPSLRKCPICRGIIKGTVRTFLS

Target: baculoviral IAP repeat-containing 2 (BIRC2) (human (endogenous in C28/I2)) (UniProt Q13490)
Test: co-IP; RIPA lysate of cells incubated with anti-IgG antibody and anti-BIRC2/anti-TRADD antibody, protein A/G PLUS-Agarose beads, western blot with anti-TRADD and anti-BIRC2 antibodies

B1: tumor necrosis factor receptor 1-associated death domain protein (TRADD) (protein, UniProt Q15628 1-312)
chain: MAAGQNGHEEWVGSAYLFVESSLDKVVLSDAYAHPQQKVAVYRALQAALAESGGSPDVLQMLKIHRSDPQLIVQLRFCGRQPCGRFLRAYREGALRAALQRSLAAALAQHSVPLQLELRAGAERLDALLADEERCLSCILAQQPDRLRDEELAELEDALRNLKCGSGARGGDGEVASAPLQPPVPSLSEVKPPPPPPPAQTFLFQGQPVVNRPLSLKDQQTFARSVGLKWRKVGRSLQRGCRALRDPALDSLAYEYEREGLYEQAFQLLRRFVQAEGRRATLQRLVEALEENELTSLAEDLLGLTDPNGGLA
**Q.** B1 was tested. Which binding did it give?
**A.** Its binding is “binds”.
